# Values from PubChem BioAssay AID652243 (Drosophila RNAi Screening Center, 2013).
# Aim: 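Fly genes required for human androgen receptor driven transcription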 (primary screen)
# System: Drosophila S2R+ cells
# Knock-down reagent: long dsRNA against Drosophila genes
# Timing: 72 h (48 h, then 24 h hormone)
# Conditions: synthetic androgen R1881 at 10 nM for 24 h
# Measured: 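Per-well raw luminescence of the androgen-driven firefly reporter and of the Renilla control, two replicates each, without normalisation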
# Reading the numbers: firefly reporter light: higher = more light from androgen-responsive reporter; Renilla control light: higher = more constitutive control signal (cell number, transfection)
# Rule for the call: 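Hit when the log firefly-to-Renilla ratio dropped or increased by a fixed fold versus the mean of GFP or LacZ controls across duplicate plates; lowering cut given as 1.5 and as 3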
# Meaning of the calls: active = hit: reporter lowered or raised; inactive = no hit
# In all, the deposit lists about 24,000 reagents; below is an unselected part of those that have a named target and a result. Of all reagents, 246 (1%) were called active. 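Plates not normalised; calls are printed but the firefly/Renilla ratio behind them is not deposited; fold cut for lowering reported inconsistently.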 Raw values vary from plate to plate and are shown uncorrected. A number with no mark means an inactive call. Names joined by + are all predicted targets of the reagent. Not stated in the record: the amount of reagent.
gene knocked down,DRSC id,"firefly reporter light, replicate 1","firefly reporter light, replicate 2","Renilla control light, replicate 1","Renilla control light, replicate 2"
CG9344,DRSC04541,3.35e5,4.42e5,2.14e6,2.21e6
Idh3g,DRSC15699,2.05e5,2.01e5,2.61e6,2.50e6
Idh3g,DRSC26628,3.39e5,2.92e5,6.10e5,7.05e5
slmo + CG34179,DRSC03143,3.07e5,5.58e5,1.20e6,1.37e6
CG31600,DRSC22541,5.70e5,6.23e5,1.80e6,1.75e6
CG31600,DRSC30096,6.10e5,8.79e5,1.30e6,1.19e6
Rpt1 (Regulatory particle triple-A ATPase 1),DRSC07542,4.62e5,6.21e5,1.20e6,1.49e6
Nnf1a,DRSC06394,90708,1.17e5,1.15e6,8.02e5
Cyp4d21 (Cytochrome P450 4d21),DRSC03305,6.37e5,8.75e5,9.12e5,1.25e6
Cyp4d21 (Cytochrome P450 4d21),DRSC25622,5.41e5,5.84e5,3.81e5,5.24e5
CG13223,DRSC06344,3.04e5,2.38e5,1.58e6,1.69e6
tst (twister),DRSC14212,84761,68506,5.29e5,4.92e5
RpLP2 (Ribosomal protein LP2),DRSC07539,45204,81683,5.06e5,5.06e5
RpLP2 (Ribosomal protein LP2),DRSC28510,6.66e5,1.00e6,1.91e5,2.44e5
CG6294 + CG6299 + CG15642,DRSC19981,5.66e5,8.14e5,4.69e6,4.31e6
CG17570,DRSC01770,1.61e5,1.69e5,5.99e5,5.50e5
CG17570,DRSC03754,1.52e5,1.24e5,1.27e6,1.14e6
CG17300,DRSC10260,3.61e5,2.63e5,2.59e6,2.22e6
CG17300,DRSC28904,3.72e5,2.85e5,1.01e6,1.14e6
MFS1 (Major Facilitator Superfamily Transporter 1),DRSC04115,3.36e5,3.14e5,1.78e6,1.47e6
MFS1 (Major Facilitator Superfamily Transporter 1),DRSC27926,6.22e5,2.95e5,2.40e6,1.33e6
Sbp2 (SECIS-binding protein 2),DRSC10766,7.69e5,7.78e5,7.17e5,9.36e5
prt (portabella),DRSC16894,1.45e5,1.85e5,2.40e6,2.03e6
"betaNACtes1 (Nascent-associated complex beta-subunit-like, testis 1)",DRSC19534,5.12e5,4.69e5,3.47e6,4.14e6
"betaNACtes1 (Nascent-associated complex beta-subunit-like, testis 1)",DRSC26176,2.57e5,2.82e5,7.98e5,6.69e5

The list goes on; the last 3 above are carried over.
gene knocked down,DRSC id,"firefly reporter light, replicate 1","firefly reporter light, replicate 2","Renilla control light, replicate 1","Renilla control light, replicate 2"
prt (portabella),DRSC16894,1.45e5,1.85e5,2.40e6,2.03e6
"betaNACtes1 (Nascent-associated complex beta-subunit-like, testis 1)",DRSC19534,5.12e5,4.69e5,3.47e6,4.14e6
"betaNACtes1 (Nascent-associated complex beta-subunit-like, testis 1)",DRSC26176,2.57e5,2.82e5,7.98e5,6.69e5
Tsp42Ep (Tetraspanin 42Ep),DRSC06871,1.03e6,9.52e5,1.43e6,1.79e6
DIP-zeta (Dpr-interacting protein zeta),DRSC02203,2.84e5,2.43e5,1.67e6,1.54e6
DIP-zeta (Dpr-interacting protein zeta),DRSC02204,6.40e5,9.53e5,1.47e6,1.79e6
DIP-zeta (Dpr-interacting protein zeta),DRSC02205,1.36e5,1.92e5,1.59e6,1.93e6
PGRP-SB2 (Peptidoglycan recognition protein SB2),DRSC11092,1.68e5,1.58e5,1.47e6,1.28e6
CG1603,DRSC06602,8.42e5,1.19e6,1.87e6,2.93e6
CG1603,DRSC27982,8.51e5,3.89e5,2.87e6,1.85e6
"AP-1-2beta (Adaptor Protein complex 1/2, beta subunit)",DRSC19336,97792,1.62e5,3.47e5,3.09e5
"AP-1-2beta (Adaptor Protein complex 1/2, beta subunit)",DRSC23868,7.63e5,8.62e5,8.10e5,9.15e5
Hecw (Hecw ubiquitin protein ligase),DRSC18261,2.38e5,1.97e5,1.97e6,2.34e6
Hecw (Hecw ubiquitin protein ligase),DRSC18276,3.25e5,3.85e5,3.57e6,3.00e6
Hecw (Hecw ubiquitin protein ligase),DRSC25872,6.56e5,5.66e5,1.02e6,1.04e6
Ipp (Inositol polyphosphate 1-phosphatase),DRSC16718,58014,80035,8.86e5,1.45e6
Ipp (Inositol polyphosphate 1-phosphatase),DRSC26058,2.36e5 (active),2.80e5,5.20e5,5.94e5
GCC185 (GRIP and coiled-coil domain containing 185 kDa),DRSC15493,1.90e5,1.69e5,2.67e6,2.20e6
Wbp2 (WW domain binding protein 2),DRSC25018,9.92e5,1.09e6,8.21e5,8.43e5
CG18622,DRSC15360,2.34e5,2.98e5,2.29e6,2.69e6
Timp (Tissue inhibitor of metalloproteases),DRSC17082,1.48e5,1.04e5,1.25e6,9.81e5
Cds + Setx,DRSC27090,6.19e5,5.87e5,8.84e5,4.63e5
CG14072,DRSC02375,2.69e5,1.58e5,1.76e6,1.25e6
CG17270,DRSC15209,1.51e5,2.61e5,1.10e6,1.57e6
CG7694,DRSC16288,1.06e5,2.58e5,1.62e6,2.69e6
NimB3 (Nimrod B3),DRSC37871,1.27e6,1.22e6,1.69e6,1.80e6
Cpr49Ab (Cuticular protein 49Ab),DRSC05341,1.08e5,1.67e5,3.64e5,3.67e5
Cpr49Ab (Cuticular protein 49Ab),DRSC25034,7.04e5,8.34e5,9.00e5,8.92e5
EMC10 (ER membrane protein complex subunit 10),DRSC11850,2.58e5,2.56e5,2.20e6,2.22e6
CG14380,DRSC14840,1.16e5,90441,1.65e6,1.55e6
Cyp6g2 (Cytochrome P450 6g2),DRSC07387,2.21e5,1.44e5,1.47e6,1.35e6
Cyp6g2 (Cytochrome P450 6g2),DRSC29325,3.46e5,4.56e5,9.25e5,9.25e5
DIP-theta (Dpr-interacting protein theta),DRSC00885,4.26e5,3.28e5,2.02e6,2.47e6
DIP-theta (Dpr-interacting protein theta),DRSC02340,1.69e5,1.55e5,1.50e6,1.01e6
CG12853,DRSC06193,1.02e6,1.01e6,1.83e6,1.67e6
CG12853,DRSC27193,2.99e5,3.75e5,7.34e5,7.82e5
